# Measured values from the M2OR odorant receptor database.
# Chains of the proteins cited; added tags and fusions are not shown. Chains listed by the source or under a name are the forms on record and can include a tag or linker.
# O51L1, as listed by the source: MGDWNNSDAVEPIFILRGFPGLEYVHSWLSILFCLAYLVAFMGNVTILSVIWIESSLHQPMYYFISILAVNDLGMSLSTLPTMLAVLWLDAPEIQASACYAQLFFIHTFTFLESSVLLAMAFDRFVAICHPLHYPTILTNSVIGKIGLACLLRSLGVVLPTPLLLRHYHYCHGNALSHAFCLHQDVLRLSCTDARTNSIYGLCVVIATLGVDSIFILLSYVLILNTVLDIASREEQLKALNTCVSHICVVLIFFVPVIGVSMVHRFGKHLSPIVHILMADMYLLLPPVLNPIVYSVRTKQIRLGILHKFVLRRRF
# O52E5, as listed by the source: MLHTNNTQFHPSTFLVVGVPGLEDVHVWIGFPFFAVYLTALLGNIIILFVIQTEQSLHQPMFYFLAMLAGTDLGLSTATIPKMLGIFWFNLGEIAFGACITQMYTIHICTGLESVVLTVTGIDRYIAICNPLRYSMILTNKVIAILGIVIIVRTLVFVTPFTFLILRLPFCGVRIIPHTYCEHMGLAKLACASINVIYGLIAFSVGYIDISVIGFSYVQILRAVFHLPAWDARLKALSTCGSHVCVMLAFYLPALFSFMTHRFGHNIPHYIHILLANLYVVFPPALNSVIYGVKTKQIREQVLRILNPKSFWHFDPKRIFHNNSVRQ
# O51V1, as listed by the source: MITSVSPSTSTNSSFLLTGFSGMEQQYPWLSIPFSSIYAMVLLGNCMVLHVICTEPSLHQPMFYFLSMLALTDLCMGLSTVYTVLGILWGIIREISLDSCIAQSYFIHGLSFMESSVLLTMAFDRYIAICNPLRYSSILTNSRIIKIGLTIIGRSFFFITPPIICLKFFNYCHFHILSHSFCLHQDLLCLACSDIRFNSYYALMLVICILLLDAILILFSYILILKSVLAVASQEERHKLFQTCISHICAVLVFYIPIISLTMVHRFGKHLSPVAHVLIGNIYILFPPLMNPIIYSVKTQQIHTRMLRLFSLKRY
# O52E2, as listed by the source: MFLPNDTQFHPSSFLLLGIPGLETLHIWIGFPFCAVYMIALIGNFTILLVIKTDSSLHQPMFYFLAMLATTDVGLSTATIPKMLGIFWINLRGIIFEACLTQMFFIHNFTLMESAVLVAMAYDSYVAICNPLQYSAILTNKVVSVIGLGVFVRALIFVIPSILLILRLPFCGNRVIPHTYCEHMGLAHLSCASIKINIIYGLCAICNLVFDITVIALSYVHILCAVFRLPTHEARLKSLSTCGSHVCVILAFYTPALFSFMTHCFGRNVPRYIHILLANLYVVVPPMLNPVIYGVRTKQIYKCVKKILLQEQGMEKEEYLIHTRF
# O52E1, as listed by the source: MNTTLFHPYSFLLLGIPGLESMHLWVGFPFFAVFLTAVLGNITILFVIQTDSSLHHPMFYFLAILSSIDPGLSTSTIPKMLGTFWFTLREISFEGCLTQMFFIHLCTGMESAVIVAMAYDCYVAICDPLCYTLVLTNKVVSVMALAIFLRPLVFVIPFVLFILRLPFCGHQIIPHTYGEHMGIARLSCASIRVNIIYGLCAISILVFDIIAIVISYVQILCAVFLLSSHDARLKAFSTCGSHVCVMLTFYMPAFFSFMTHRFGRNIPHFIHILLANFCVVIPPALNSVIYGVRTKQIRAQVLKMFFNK
# O52E4, as listed by the source: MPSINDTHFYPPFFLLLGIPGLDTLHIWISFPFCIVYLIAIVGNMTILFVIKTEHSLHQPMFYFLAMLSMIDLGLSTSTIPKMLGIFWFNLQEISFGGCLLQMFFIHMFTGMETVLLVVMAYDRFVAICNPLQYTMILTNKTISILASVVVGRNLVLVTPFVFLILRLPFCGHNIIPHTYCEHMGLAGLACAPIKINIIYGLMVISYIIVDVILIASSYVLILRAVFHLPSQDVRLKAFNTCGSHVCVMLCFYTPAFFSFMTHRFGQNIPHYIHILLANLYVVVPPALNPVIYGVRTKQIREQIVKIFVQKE
# O52E8, as listed by the source: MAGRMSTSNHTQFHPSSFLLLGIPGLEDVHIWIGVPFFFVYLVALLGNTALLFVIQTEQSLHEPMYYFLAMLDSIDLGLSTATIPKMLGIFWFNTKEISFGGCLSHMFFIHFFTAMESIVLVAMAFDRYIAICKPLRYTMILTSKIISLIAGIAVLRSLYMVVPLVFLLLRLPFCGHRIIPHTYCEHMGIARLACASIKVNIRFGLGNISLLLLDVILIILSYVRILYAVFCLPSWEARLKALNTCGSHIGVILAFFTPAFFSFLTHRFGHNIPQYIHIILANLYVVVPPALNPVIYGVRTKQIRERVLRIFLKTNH
# Changes are numbered by the printed parent chain. Only a part is listed here, and it is no random draw. The calls were merged from several studies; some rest on single wells. The list shows a part of the results.
# How the values were obtained:
# Conditions in all cases: stereoisomer not certain
# O51G1 = system: T1, O51G1
# T1 sequence (whole entry): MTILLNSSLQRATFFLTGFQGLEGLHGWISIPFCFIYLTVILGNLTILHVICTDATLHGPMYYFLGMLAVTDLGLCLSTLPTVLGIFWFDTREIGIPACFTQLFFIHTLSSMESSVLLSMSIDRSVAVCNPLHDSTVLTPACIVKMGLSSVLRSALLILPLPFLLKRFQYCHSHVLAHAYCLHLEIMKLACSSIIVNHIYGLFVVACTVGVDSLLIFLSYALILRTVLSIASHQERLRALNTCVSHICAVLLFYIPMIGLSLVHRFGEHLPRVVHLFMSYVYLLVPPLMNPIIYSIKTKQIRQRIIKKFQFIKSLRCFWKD
# In short: (§1)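 Each entry records the cell line, G-protein, co-transfected protein and tags used. Methods varied with the source, often transient luciferase assays in mammalian cell lines. A receptor–molecule pair is called responsive (active) if the original authors judged its signal statistically different from baseline and non-responsive (inactive) otherwise.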
# O51G2 = system: T2, O51G2
# T2 sequence (whole entry): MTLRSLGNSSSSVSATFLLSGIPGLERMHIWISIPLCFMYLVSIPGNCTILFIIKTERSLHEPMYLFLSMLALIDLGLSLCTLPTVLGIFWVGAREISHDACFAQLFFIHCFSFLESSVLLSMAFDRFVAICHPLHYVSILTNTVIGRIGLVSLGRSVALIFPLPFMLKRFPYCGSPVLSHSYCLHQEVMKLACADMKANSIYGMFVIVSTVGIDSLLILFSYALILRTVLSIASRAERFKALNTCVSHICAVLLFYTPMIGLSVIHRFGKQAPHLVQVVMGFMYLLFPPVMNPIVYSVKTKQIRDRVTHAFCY
# In short: as §1
# O51J1 = system: T3, O51J1
# T3 sequence (whole entry): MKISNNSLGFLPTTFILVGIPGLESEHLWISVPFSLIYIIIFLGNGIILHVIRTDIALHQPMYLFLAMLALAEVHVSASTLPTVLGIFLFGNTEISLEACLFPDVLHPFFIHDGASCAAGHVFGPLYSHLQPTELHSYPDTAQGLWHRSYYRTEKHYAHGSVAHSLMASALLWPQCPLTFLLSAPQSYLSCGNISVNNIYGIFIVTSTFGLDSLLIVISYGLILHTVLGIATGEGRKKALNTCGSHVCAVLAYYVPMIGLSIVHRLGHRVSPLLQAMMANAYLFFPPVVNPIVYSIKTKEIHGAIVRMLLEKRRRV
# In short: as §1
# O51L1 [1] = system: T4, O51L1
# T4 sequence (whole entry): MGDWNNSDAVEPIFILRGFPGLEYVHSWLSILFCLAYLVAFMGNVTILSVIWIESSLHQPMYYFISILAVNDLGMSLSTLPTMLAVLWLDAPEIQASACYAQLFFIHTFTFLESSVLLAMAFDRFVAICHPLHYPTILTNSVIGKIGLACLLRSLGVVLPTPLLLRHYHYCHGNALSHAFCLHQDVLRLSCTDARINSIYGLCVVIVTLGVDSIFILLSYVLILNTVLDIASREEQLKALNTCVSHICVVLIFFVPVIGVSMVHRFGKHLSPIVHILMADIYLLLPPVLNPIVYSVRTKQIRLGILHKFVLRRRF
# In short: as §1
# O51L1 [2] = system: T5, O51L1; remark: listed apart in the source
# T5 sequence (whole entry): T4 sequence (whole entry) with I196T, V207A, I281M
# In short: as §1
# O51M1 = system: T6, O51M1
# T6 sequence (whole entry): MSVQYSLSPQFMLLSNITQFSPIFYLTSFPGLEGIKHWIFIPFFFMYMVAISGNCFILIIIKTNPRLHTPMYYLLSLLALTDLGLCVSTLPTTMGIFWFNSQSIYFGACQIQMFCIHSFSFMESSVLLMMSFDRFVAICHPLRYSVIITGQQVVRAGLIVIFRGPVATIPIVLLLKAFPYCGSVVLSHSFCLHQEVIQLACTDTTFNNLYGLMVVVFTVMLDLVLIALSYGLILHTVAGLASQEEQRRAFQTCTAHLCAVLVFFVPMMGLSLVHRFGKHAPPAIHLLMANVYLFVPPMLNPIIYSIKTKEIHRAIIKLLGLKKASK
# In short: as §1
# O51Q1 = system: T7, O51Q1
# T7 sequence (whole entry): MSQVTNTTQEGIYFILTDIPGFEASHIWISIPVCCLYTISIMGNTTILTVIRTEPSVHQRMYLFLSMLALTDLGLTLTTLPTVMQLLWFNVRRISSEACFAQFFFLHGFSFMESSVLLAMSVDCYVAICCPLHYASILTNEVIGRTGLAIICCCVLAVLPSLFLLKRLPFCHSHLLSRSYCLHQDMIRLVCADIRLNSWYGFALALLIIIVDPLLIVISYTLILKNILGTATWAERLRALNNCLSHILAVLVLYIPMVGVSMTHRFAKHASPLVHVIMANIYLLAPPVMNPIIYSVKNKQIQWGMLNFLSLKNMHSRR
# In short: as §1
# O51T1 = system: T8, O51T1
# T8 sequence (whole entry): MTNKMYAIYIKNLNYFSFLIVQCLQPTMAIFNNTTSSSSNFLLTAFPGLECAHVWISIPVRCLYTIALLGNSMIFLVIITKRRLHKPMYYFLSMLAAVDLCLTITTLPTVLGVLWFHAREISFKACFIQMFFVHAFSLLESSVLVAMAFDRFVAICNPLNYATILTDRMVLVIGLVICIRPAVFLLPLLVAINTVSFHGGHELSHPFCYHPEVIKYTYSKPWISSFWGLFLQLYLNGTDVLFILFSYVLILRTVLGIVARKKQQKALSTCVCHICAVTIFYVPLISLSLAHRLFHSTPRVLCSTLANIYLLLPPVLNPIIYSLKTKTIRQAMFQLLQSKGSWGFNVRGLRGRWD
# In short: as §1
# O51V1 [3] = system: T9, O51V1
# T9 sequence (whole entry): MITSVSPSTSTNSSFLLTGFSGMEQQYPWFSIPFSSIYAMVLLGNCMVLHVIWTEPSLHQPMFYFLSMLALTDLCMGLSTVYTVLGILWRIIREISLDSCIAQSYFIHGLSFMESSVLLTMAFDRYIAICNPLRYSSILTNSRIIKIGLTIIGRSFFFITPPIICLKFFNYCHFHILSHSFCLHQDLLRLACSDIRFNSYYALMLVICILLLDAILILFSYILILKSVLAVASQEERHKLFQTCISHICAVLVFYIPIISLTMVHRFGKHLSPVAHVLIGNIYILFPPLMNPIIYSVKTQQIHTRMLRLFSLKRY
# In short: as §1
# O51V1 [4] = system: T10, O51V1; remark: listed apart in the source
# T10 sequence (whole entry): T9 sequence (whole entry) with F30L, W53C, R90G, R189C
# In short: as §1
# O52A1 = system: T11, O52A1
# T11 sequence (whole entry): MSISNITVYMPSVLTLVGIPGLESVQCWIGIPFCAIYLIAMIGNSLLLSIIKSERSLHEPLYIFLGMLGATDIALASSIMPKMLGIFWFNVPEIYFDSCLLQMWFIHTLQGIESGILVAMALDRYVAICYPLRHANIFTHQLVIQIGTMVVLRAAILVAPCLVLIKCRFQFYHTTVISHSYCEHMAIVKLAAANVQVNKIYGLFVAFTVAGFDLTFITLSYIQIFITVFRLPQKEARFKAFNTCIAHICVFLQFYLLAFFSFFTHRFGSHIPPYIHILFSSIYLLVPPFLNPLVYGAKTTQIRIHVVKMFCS
# In short: as §1
# O52B2 = system: T12, O52B2
# T12 sequence (whole entry): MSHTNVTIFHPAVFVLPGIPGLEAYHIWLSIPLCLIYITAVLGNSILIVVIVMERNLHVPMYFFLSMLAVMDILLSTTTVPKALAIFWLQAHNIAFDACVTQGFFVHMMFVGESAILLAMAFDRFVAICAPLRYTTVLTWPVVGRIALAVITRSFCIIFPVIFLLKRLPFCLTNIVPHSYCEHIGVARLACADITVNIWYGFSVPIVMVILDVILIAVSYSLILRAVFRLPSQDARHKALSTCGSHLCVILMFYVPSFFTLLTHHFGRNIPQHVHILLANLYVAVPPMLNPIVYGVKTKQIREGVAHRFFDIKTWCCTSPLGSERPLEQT
# In short: as §1
# O52B6 = system: T13, O52B6
# T13 sequence (whole entry): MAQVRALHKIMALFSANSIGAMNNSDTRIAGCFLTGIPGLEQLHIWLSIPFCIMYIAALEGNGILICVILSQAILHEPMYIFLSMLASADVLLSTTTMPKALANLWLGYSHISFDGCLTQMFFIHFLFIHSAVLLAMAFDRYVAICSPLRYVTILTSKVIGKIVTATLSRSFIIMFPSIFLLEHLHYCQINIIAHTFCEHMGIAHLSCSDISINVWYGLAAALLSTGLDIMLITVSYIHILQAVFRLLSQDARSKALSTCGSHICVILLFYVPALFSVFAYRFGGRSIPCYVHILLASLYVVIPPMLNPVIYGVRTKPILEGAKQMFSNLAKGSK
# In short: as §1
# O52E1 = system: O52E1
# In short: as §1
# O52E2 = system: O52E2
# In short: as §1
# O52E4 = system: O52E4
# In short: as §1
# O52E5 = system: O52E5
# In short: as §1
# O52E8 = system: O52E8
# In short: as §1
# O52I2 = system: T14, O52I2
# T14 sequence (whole entry): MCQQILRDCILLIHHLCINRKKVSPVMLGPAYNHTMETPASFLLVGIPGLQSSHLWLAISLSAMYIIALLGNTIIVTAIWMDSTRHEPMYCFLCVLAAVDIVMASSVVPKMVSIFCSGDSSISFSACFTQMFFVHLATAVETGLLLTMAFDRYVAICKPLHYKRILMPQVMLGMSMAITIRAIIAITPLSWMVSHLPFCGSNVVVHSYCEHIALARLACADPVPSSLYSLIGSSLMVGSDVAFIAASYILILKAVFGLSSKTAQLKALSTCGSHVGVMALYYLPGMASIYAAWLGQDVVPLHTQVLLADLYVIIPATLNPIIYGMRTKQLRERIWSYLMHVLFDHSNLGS
# In short: as §1
# O52H1 = system: T15, O52H1
# T15 sequence (whole entry): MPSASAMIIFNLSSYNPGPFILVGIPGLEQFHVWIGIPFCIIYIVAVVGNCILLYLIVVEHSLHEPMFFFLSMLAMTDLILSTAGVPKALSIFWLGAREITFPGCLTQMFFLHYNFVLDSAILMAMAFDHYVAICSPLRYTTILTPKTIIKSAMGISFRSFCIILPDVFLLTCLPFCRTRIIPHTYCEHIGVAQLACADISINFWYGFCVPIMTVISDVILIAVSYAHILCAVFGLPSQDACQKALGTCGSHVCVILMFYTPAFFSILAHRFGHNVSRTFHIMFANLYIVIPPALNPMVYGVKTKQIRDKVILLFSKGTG
# In short: as §1
SMILES,odorant receptor agonist call (O51G1),odorant receptor agonist call (O51G2),odorant receptor agonist call (O51J1),odorant receptor agonist call (O51L1 [1]),odorant receptor agonist call (O51L1 [2]),odorant receptor agonist call (O51M1),odorant receptor agonist call (O51Q1),odorant receptor agonist call (O51T1),odorant receptor agonist call (O51V1 [3]),odorant receptor agonist call (O51V1 [4]),odorant receptor agonist call (O52A1),odorant receptor agonist call (O52B2),odorant receptor agonist call (O52B6),odorant receptor agonist call (O52E1),odorant receptor agonist call (O52E2),odorant receptor agonist call (O52E4),odorant receptor agonist call (O52E5),odorant receptor agonist call (O52E8),odorant receptor agonist call (O52I2),odorant receptor agonist call (O52H1)
C=CC(C)(O)CCC=C(C)C (configuration not stated),inactive,inactive,inactive,inactive,inactive,active,inactive,inactive,inactive,inactive,inactive,inactive,inactive,inactive,inactive,inactive,inactive,inactive,inactive,–
O=C1CCCCCCCCCCCC(=O)OCCO1,inactive,inactive,inactive,inactive,inactive,active,inactive,inactive,active,inactive,inactive,inactive,inactive,inactive,inactive,inactive,inactive,inactive,inactive,–
C=CCc1ccc(OC(C)=O)c(OC)c1,inactive,inactive,active,inactive,inactive,active,inactive,inactive,active,active,inactive,inactive,inactive,inactive,active,inactive,inactive,inactive,inactive,–
CC12C=CCC1C1CCC3CC(=O)CCC3(C)C1CC2 (configuration not stated),inactive,active,inactive,inactive,inactive,inactive,active,inactive,inactive,inactive,active,active,inactive,inactive,active,inactive,inactive,–,inactive,inactive
c1ccc(Oc2ccccc2)cc1,inactive,inactive,inactive,inactive,inactive,inactive,inactive,inactive,inactive,inactive,inactive,inactive,inactive,inactive,inactive,inactive,inactive,inactive,inactive,–
CC(C)C(=O)O,inactive,inactive,inactive,inactive,inactive,inactive,inactive,inactive,inactive,inactive,inactive,inactive,inactive,inactive,inactive,inactive,inactive,inactive,inactive,–
CCCCCCCCOC(C)=O,inactive,inactive,inactive,inactive,inactive,inactive,inactive,inactive,inactive,inactive,inactive,inactive,inactive,inactive,inactive,inactive,inactive,inactive,inactive,–
CCCCCCOC(=O)CCC,inactive,inactive,inactive,inactive,inactive,inactive,inactive,inactive,inactive,inactive,inactive,inactive,inactive,inactive,inactive,inactive,inactive,inactive,inactive,–
